According to PubChem BioAssay AID624291 (National Center for Advancing Translational Sciences (NCATS), 2012):
In all, about 350,000 compounds went through this assay and about 220 (0.063%) were called active. Inconclusive means that the source gave no clear call. Such entries were picked first, then a sample of the others. Calls come from the whole dose curve; as a rule, active = well fitted activation curve with a large enough effect; inconclusive = small, poorly fitted or top-dose-only effect; inactive = no such curve, though single readings can be large or run the other way. Where the call is inconclusive, the potency comes from a doubtful curve fit.

assay: qHTS for Activators of Integrin-Mediated Alleviation for Muscular Dystrophy; conditions: alpha7betagal myoblasts, beta-gal FDG fluorescence, 48 h; activation: at 38.3 µM (top of the series); note: nearly all actives have a fitted effect of over 60% in size;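 for activation: 100% = response of the positive control SU9516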
How it was run: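 alpha7betagal+/- myoblasts (passage 13, 250/well) treated 48 h at 37C with compounds at 1:260 dilution of DMSO stock. Lysed, then beta-galactosidase activity read as FDG fluorescence (ex 480/em 540) after 30 min, with pre-read for autofluorescence.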
Potency is the fitted concentration of half-maximal effect.

SMILES | activation | Potency
O=C(c1ccc(CSc2nc3ccncc3[nH]2)cc1)N1CCCCCC1 | inactive: -30.4% | 
CCCCCCn1cc(C(=O)O)c(=O)c2cc(F)c(N3CCCCC3)cc21 |  | inconclusive: 7.08 µM [activator, partial curve]
CC(=O)Nc1ccc(C(=O)OCC(=O)N2CC3(C)CC2CC(C)(C)C3)cc1 (stereo unspecified) |  | inconclusive: 3.55 µM [activator, single point]
Cc1ccc(NC(=O)CSc2nnnn2C)cc1S(=O)(=O)N(C)C |  | inconclusive: 0.501 µM [activator, full curve, poor fit]
Cc1cccc(NC(=S)NC(C)CCc2ccccc2)c1 (stereo unspecified) | inactive: -11.8% | 
O=C(Nc1nnc(-c2cccs2)s1)c1cccc(F)c1 |  | inconclusive: 5.01 µM [activator, single point]
O=C(Nc1ccc(N2CCOCC2)cc1)c1ccc([N+](=O)[O-])o1 | inactive: -61.8% | 
COc1ccccc1C=C1SC(=S)NC1=O |  | inconclusive: 10 µM [activator, partial curve, poor fit]
CCCC1(c2ccccc2)NC(=O)N(CC(=O)N2CC(=O)Nc3ccccc32)C1=O (stereo unspecified) |  | inconclusive: 0.891 µM [activator, single point]
COc1ccc2nc(C)cc(SCC(=O)NNC(=O)COc3ccc(C)cc3)c2c1 | inactive: 9.99% | 
CCOC(=O)c1cn2nc(SCc3ccccc3)nc2nc1C | inactive: 0.762% | 
Nc1nc(NC(=O)c2ccccc2Cl)nn1-c1ccccc1 |  | inconclusive: 5.01 µM [activator, single point]
CCC1CCc2[nH]nc(C(=O)O)c2C1 (stereo unspecified) | inactive: 2.48% | 
Cc1ccc(S(=O)(=O)N(C)CCN(C)S(=O)(=O)c2ccc(C)cc2)cc1 |  | inconclusive: 31.6 µM [activator, single point]
Cc1cc(OCc2cc(C(=O)N(C)C(C)c3ccccn3)no2)cc(C)c1Cl (stereo unspecified) |  | inconclusive: 3.16 µM [activator, single point]
COc1ccc(CN(C)CC(=O)Nc2ccccc2-c2ccccc2)c(OC)c1 |  | inconclusive: 3.16 µM [activator, single point]
Cc1cccnc1NC1(C(F)(F)F)N=C2SCCN2C1=O (stereo unspecified) |  | inconclusive: 11.2 µM [activator, single point]
CC(=O)CSc1nc(-c2cccs2)c(C#N)c(=O)[nH]1 |  | inconclusive: 28.2 µM [activator, single point]
CN(Cc1ccccc1)c1ncnc2ccc(Br)cc12 | inactive: 0% | 
O=C(O)C1C2CCCCC2=C2CCCCC2C1C(=O)c1ccccc1 (stereo unspecified) |  | inconclusive: 28.2 µM [activator, single point]
O=C(CN1C(=O)C2CC=CCC2C1=O)Nc1nc2ccc(F)cc2s1 (stereo unspecified) |  | inconclusive: 15.8 µM [activator, single point]

Some of these compounds in order of count of non-hydrogen atoms, falling.
SMILES | activation | Potency
O=C(Nc1ccc(N2CCOCC2)cc1)c1ccc([N+](=O)[O-])o1 | inactive: -61.8% | 
Nc1nc(NC(=O)c2ccccc2Cl)nn1-c1ccccc1 |  | inconclusive: 5.01 µM [activator, single point]
CCC1CCc2[nH]nc(C(=O)O)c2C1 (stereo unspecified) | inactive: 2.48% | 
